In the supplement of paper PMC5949888:
Most values lie at the floor of the assay. Slopes are relative: functional sequences can read slightly below zero.

Tested on: Saccharomyces cerevisiae PS128 hsf1 delta, HSF1(1-493) fusion
Experiment: growth estimate (transactivation domain function in HSF1 fusion, heat-shock survival) (a.u. (slope of normalised read count over time)); higher = stronger growth at 37°C, i.e. more transactivation activity
Conditions: library: random library

| Substance | growth estimate |
| --- | --- |
| STKV | < -0.25 |
| STKWLSHWL | < -0.25 |
| STLGT | -0.221 |
| STLH | < -0.25 |
| STLKRS | < -0.25 |
| STLLLIRSVL | < -0.25 |
| STNNETHVFWFRSSRPSVCR | < -0.25 |
| STNTLLIVLICGDFSM | < -0.25 |
| STPDTAVPVLY | 0.0518 |
| STPEQWEIEKIRSYSEAVST | < -0.25 |
| STPRVQTVRDRSSRVRLIAV | < -0.25 |
| STRGAIFVGRGPINEGPAIS | < -0.25 |
| STRHSTPILLGHWSRILRQT | < -0.25 |
| STRVGRWRQARRFRSHAVPG | < -0.25 |
| STRVRPPIVHAFVIGTSGRP | < -0.25 |
| STRWHDSSESGRMLPCSPGY | < -0.25 |
| STSAVRSGMASWHSTRPNHV | < -0.25 |
| STSNDNLNKVPRV | -0.231 |
| STSRFVDVVASNAIIRALGR | < -0.25 |
| STSRNQKSNFYGDRV | < -0.25 |
| STTCTSYER | < -0.25 |
| STTGDLCSSASRSGHTFCQS | < -0.25 |
| STTKG | < -0.25 |
| STTPRASVGPVIRYIGHPAK | < -0.25 |
| STVCVHFCFERL | < -0.25 |

| Substance | growth estimate |
| --- | --- |
| STVLSDHIRGMCPELPLLVS | < -0.25 |
| SVAEIGLEGGAPQLM | < -0.25 |
| SVAEPH | < -0.25 |
| SVCYVPLDQWTDESV | -0.243 |
| SVECRKIRPEELRFQRRAHY | < -0.25 |
| SVELVLETEYIRDTRGISSP | < -0.25 |
| SVFGEAVYADMLATGC | < -0.25 |
| SVFGIGPGDFSRRSI | < -0.25 |
| SVFTTGLRID | < -0.25 |
| SVG | < -0.25 |
| SVGADEPFGDAKGVSRQ | < -0.25 |
| SVGCAMACAPGRKDRYHTRT | < -0.25 |
| SVGGTEKPR | < -0.25 |
| SVGSTA | < -0.25 |
| SVGTSALTNRI | < -0.25 |
| SVHAPEN | < -0.25 |
| SVHCHCDLLGVVHHGFNGRL | < -0.25 |
| SVIIIPSCHIFRAAYRSSRQ | < -0.25 |
| SVILDIIHCRQYRNLRPDGP | < -0.25 |
| SVINLGSRKGRNHNVYTGHC | < -0.25 |
| SVINVSTWSRKW | < -0.25 |
| SVIRGEPVSPSVAGIPKPLT | < -0.25 |
| SVK | < -0.25 |
| SVKGRIASQTTRATQE | < -0.25 |
| SVKGY | < -0.25 |

| Substance | growth estimate |
| --- | --- |
| SVKSY | < -0.25 |
| SVLAVEADFSNRKARNILRR | < -0.25 |
| SVLCRKYYVNSVMPTEHLPV | < -0.25 |
| SVLCTRLRCLGSMLSRL | < -0.25 |
| SVLHGNRTFQILGLSSP | < -0.25 |
| SVLIPFVAVEDSLINKP | < -0.25 |
| SVLL | < -0.25 |
| SVLNRGSVKDLF | < -0.25 |
| SVLPARKSQLRMD | < -0.25 |
| SVLRSIFQPIRCKFGPNRPG | < -0.25 |
| SVLSMVRVAE | < -0.25 |
| SVM | < -0.25 |
| SVMQLHRAGLPLRNTNGSRW | < -0.25 |
| SVNCRMVHRRMVVSQLRSGL | < -0.25 |
| SVP | < -0.25 |
| SVPSIAVSFRVPAGVG | < -0.25 |
| SVRALGLRSRLHRQPPDEEV | < -0.25 |
| SVREAEYISGGGD | < -0.25 |
| SVRFTPHTGGMGIGL | < -0.25 |
| SVRFTRMTGYKRYSSRVSRA | < -0.25 |
| SVRGGYLIFTNQARH | < -0.25 |
| SVRIGKWLPVERGMDSYFSE | < -0.25 |
| SVRIRLFEDEVSSRGLYDTR | < -0.25 |
| SVRPTSKRCLSCRPCFVD | < -0.25 |
| SVSAVP | < -0.25 |

| Substance | growth estimate |
| --- | --- |
| SVSCILVDLPRV | -0.246 |
| SVSDVSCSLNCPRIPEWT | < -0.25 |
| SVSDYASGQL | < -0.25 |
| SVSFGGLDDVSVYH | -0.0468 |
| SVSHTLDGN | < -0.25 |
| SVSPAQYLTPNDASNS | < -0.25 |
| SVTDVSS | < -0.25 |
| SVTGSSSYLESSPPVSPTMR | < -0.25 |
| SVTLLPLYALCSMLPGYYGE | < -0.25 |
| SVTPRTRIHVGMGRLVPINA | < -0.25 |
| SVTQVIPCPGRDIPRACHWN | < -0.25 |
| SVTREVDGHSAVGKAVVTSM | < -0.25 |
| SVTTI | < -0.25 |
| SVTVGGEGEPCESREHRPGP | < -0.25 |
| SVVGGAARGRMGSES | < -0.25 |
| SVVIWEKGLLILDDLRGFNA | < -0.25 |
| SVVWI | < -0.25 |
| SVWARNAWRRAGVFTRALDR | < -0.25 |
| SVYATNSLAHGSRKNPFATT | < -0.25 |
| SWA | < -0.25 |
| SWANHERYRGP | < -0.25 |
| SWATPRHCAQISSSKLPCPF | < -0.25 |
| SWC | < -0.25 |
| SWCGGAGAAGKFALRGRAQA | < -0.25 |
| SWCPYRAPLTAAGAAPCSFA | -0.246 |

| Substance | growth estimate |
| --- | --- |
| SWCTGDRHGRPR | < -0.25 |
| SWDRLSRRP | < -0.25 |
| SWDSNVEPFK | < -0.25 |
| SWGIAQ | < -0.25 |
| SWGPADRRP | < -0.25 |
| SWIRFRAVYSLRVLLEARTE | < -0.25 |
| SWKKL | < -0.25 |
| SWKPLQARPGRILRMHLYSF | < -0.25 |
| SWLGVICRSSASSLIIRDRF | -0.0983 |
| SWLILMAKRVTRYEHGGRIF | < -0.25 |
| SWLTGQRVGKASGFLEELGK | < -0.25 |
| SWN | < -0.25 |
| SWNLLIASLSPRRSQCRNSH | < -0.25 |
| SWNRMFQTATNTVSTIGATL | < -0.25 |
| SWQGLQGGERIMSLKSATKT | < -0.25 |
| SWQVSSICKLGNCLGGCIQT | < -0.25 |
| SWSRFKS | < -0.25 |
| SWTA | < -0.25 |
| SWTFGPPQ | < -0.25 |
| SWTLSTWTEDIALGRYIACR | < -0.25 |
| SWVLPFWGYFLGSLAPDPFL | < -0.25 |
| SWVTWGGLTCGRPI | < -0.25 |
| SYAKWRLVCQSRRSTPERLR | < -0.25 |
| SYATYPTVPWLL | -0.119 |
| SYAVGVLSRALSTWDFAVKV | -0.232 |

| Substance | growth estimate |
| --- | --- |
| SYDLGKGQSRGGCGVGLVMS | < -0.25 |
| SYDRFSGLIIMICHGPASLG | -0.246 |
| SYFELSVRGSDNTSNICYPG | < -0.25 |
| SYFNALRLIWQEIGTY | < -0.25 |
| SYGGEGCWASVIELA | < -0.25 |
| SYGQGTNEVTSHRDRWAPPT | < -0.25 |
| SYHQTRKGSG | < -0.25 |
| SYKLLPSRYRQIEVRRTLP | < -0.25 |
| SYLNWGVW | < -0.25 |
| SYMQ | < -0.25 |
| SYMSE | < -0.25 |
| SYNVELQLCLT | < -0.25 |
| SYPRVNFSSTMIRINSALGG | < -0.25 |
| SYRIGTVCSIFLAICNSARN | < -0.25 |
| SYRKGG | < -0.25 |
| SYRYLL | < -0.25 |
| SYSFGKLYPERFRLL | < -0.25 |
| SYSGMKNGYEPVSQATVFRR | < -0.25 |
| SYTDNKSWSLSSHREYLDCN | -0.248 |
| SYV | < -0.25 |
| SYVLVCSGRTEGGRPTPASS | -0.241 |
